PubChem BioAssay AID1259405, NCATS, 2018
Screen: 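Knock-downs that lift recombinant protein yield in hamster ovary cells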 (primary screen). Cell system: Chinese hamster CHO-K1 ovary cells with stable secreted eGFP expression. Knock-down reagent: single siRNA against mouse genes, 0.8 pmol siRNA per well (2 µl of 400 nM stock). Timing: 3 days. Measurement: 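Percent of the per-plate non-targeting control median for intracellular GFP per well by laser scanning cytometry and for cell viability by ATP luminescence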. Direction: GFP, % of control: higher = more GFP per well, higher productivity; viability (ATP), % of control: higher = more viable cells (more ATP). Active means: 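Called active when intracellular GFP, relative to negative control, is at or above 120%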.
The whole screen tested about 50,000 reagents; below is a random part of them. In the full data, about 4,000 (8%) were called active. 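Mouse siRNA library applied to hamster cells; one well for each siRNA.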 The numbers tell different reagents against one gene apart.

The opening 2 records, to show the layout:
Tpra1 #1
- GFP, % of control: 57.4
- viability (ATP), % of control: 66.4
- call: inactive

Tpra1 #2
- GFP, % of control: 55.7
- viability (ATP), % of control: 74.9
- call: inactive

The listing, from the first entry:
Tpra1 #1
- GFP, % of control: 57.4
- viability (ATP), % of control: 66.4
- call: inactive

Tpra1 #2
- GFP, % of control: 55.7
- viability (ATP), % of control: 74.9
- call: inactive

Tpra1 #3
- GFP, % of control: 69.6
- viability (ATP), % of control: 35.7
- call: inactive

Magea9 #1
- GFP, % of control: 54.9
- viability (ATP), % of control: 87.4
- call: inactive

Magea9 #2
- GFP, % of control: 48.7
- viability (ATP), % of control: 52.6
- call: inactive

Magea9 #3
- GFP, % of control: 169
- viability (ATP), % of control: 154
- call: active

Eid3 #1
- GFP, % of control: 73.2
- viability (ATP), % of control: 62.2
- call: inactive

Eid3 #2
- GFP, % of control: 117
- viability (ATP), % of control: 90.5
- call: inactive

Eid3 #3
- GFP, % of control: 82.4
- viability (ATP), % of control: 99.7
- call: inactive

Acsl4 #1
- GFP, % of control: 104
- viability (ATP), % of control: 101
- call: inactive

Acsl4 #2
- GFP, % of control: 56.7
- viability (ATP), % of control: 66
- call: inactive

Acsl4 #3
- GFP, % of control: 44
- viability (ATP), % of control: 57.9
- call: inactive

Ciao2a #1
- GFP, % of control: 73.8
- viability (ATP), % of control: 36.9
- call: inactive

Ciao2a #2
- GFP, % of control: 88
- viability (ATP), % of control: 90.7
- call: inactive

Ciao2a #3
- GFP, % of control: 96.8
- viability (ATP), % of control: 113
- call: inactive

Foxn2 #1
- GFP, % of control: 71.2
- viability (ATP), % of control: 98
- call: inactive

Foxn2 #2
- GFP, % of control: 90.5
- viability (ATP), % of control: 86.7
- call: inactive
